Source: publication PMC3960060
No constants are given. Whether binding was seen depends on the method and setting. Some entries that bind do so weakly or less than the wild type.

Molecular target: T1, recombinant biotinylated HEG1 cytoplasmic tail protein (UniProt Q9ULI3)
T1 sequence (chain, biotin): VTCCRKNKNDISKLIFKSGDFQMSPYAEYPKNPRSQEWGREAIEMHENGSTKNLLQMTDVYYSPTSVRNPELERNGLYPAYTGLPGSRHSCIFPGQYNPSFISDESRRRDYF
Assay: ELISA; capture ELISA: plates coated with 10 ug/mL neutravidin, blocked with 1% BSA, loaded with 2 ug/mL biotinylated HEG1 tail protein; incubated with HEK293A lysates adjusted to equal FLAG-CCM1 levels; washed with 0.2% Triton X-100 in PBS; detected with anti-FLAG M2 and HRP-conjugated anti-mouse IgG, chemiluminescence; only the target purified

With “human full-length FLAG-tagged CCM1 (from UniProt O00522-1 1-736)” as the substance, how does the binding read?
The binding was “binds”.
